The campaign covered roughly 1,900 compounds. About 250 (13%) were called active. Not shown: some 4% with an inconclusive outcome.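 Rule for the calls: active = fitted curve reaches 40% rescue activity at or below the top valid dose, in every test run; inconclusive = test runs disagree, some active and some inactive; inactive = every run misses the threshold or moves the wrong way.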 Only a part is listed here, and it is no random draw. Measured potencies and affinities stand elsewhere.
Experiment: rescue of simvastatin-induced ATP loss – cell-based, C2C12 myotubes, ATP luminescence, cherry pick, dose response (AID 624405);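 note: myotubes are challenged with simvastatin at 10 µM to lower ATP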
Conditions: 48 h, scaled: DMSO wells 0, geranylgeraniol wells 100; at 19.5 µM (top of the series) unless noted

Compound | rescue activity (ATP increase)
Cn1c(-c2ccc(F)cc2)cnc1NCc1ccc(F)cc1 | inactive: -41.3%
Oc1ccc(C=NNc2nc3ccccc3s2)c(O)c1 | inactive: 0.517%
C[C@H](CO)N1C[C@H](C)[C@@H](CN(C)Cc2ccc(Oc3ccccc3)cc2)Oc2ccc(NC(=O)Cn3cnnn3)cc2CC1=O | inactive: 24.5%
COc1ccc(CN(C)C[C@@H]2Oc3ccc(NC(=O)Cc4cn(C)c5ccccc45)cc3CC(=O)N([C@H](C)CO)C[C@H]2C)cc1 | inactive: 25.8%
COc1ccccc1OCCNC1CCCC1 | inactive: 13%
C[C@H](CO)N1C[C@H](C)[C@@H](CN(C)Cc2ccc(Cl)c(Cl)c2)Oc2ccc(NS(=O)(=O)c3cccs3)cc2CC1=O | inactive: -10.7%
C[C@H](CO)N1C[C@H](C)[C@@H](CN(C)S(=O)(=O)c2cccs2)Oc2ccc(NC(=O)Nc3cccc4ccccc34)cc2C1=O | inactive: 24.4%
O=C(O)C1CCC(=O)N(C2CC2)C1c1ccccc1 (configuration not stated) | inactive: -7.94%
C[C@H]1CN([C@@H](C)CO)C(=O)c2cccc(NC(=O)C3CCCCC3)c2O[C@@H]1CN(C)S(=O)(=O)c1ccc(Cl)cc1 | inactive: 16.4%
COc1ccc(C(N)CCc2ccc(C)o2)cc1 (configuration not stated) | inactive: 20.9%
O=C(NCc1ccc(Cl)c(Cl)c1)c1cccnc1 | inactive: 20.5%
COc1cccc(CC(NC(C)=O)C(=O)NC2CCN(c3nc(C)cc(C)c3C#N)CC2)c1 (configuration not stated) | inactive: -23.4%
C[C@@H]1CN([C@H](C)CO)C(=O)c2cccc(NS(=O)(=O)c3cccs3)c2O[C@@H]1CN(C)S(=O)(=O)c1cccs1 | inactive: 16.3%
Cc1noc(C)c1S(=O)(=O)Nc1ccc2c(c1)CC(=O)N([C@H](C)CO)C[C@@H](C)[C@@H](CN(C)Cc1ccc(Cl)c(Cl)c1)O2 | inactive: 25.4% [at 21 µM]
CCOC(=O)c1c(NC(=O)CSc2nnc(C)c(=O)[nH]2)sc2c1CCC2 | inactive: -9.67%
CC(C)CNC(=O)CN(C1CCCCC1)S(=O)(=O)c1ccccc1 | inactive: -0.134%
C[C@@H]1CN([C@H](C)CO)C(=O)c2cc(NS(=O)(=O)c3ccc(Cl)cc3)ccc2O[C@@H]1CN(C)C(=O)Nc1ccccc1 | inactive: 1.03%
CC(=O)N1c2ccc(S(=O)(=O)NCCC(=O)NCCc3ccc(C)cc3)cc2CC1C (configuration not stated) | inactive: -9.48%
C[C@@H]1CCCCO[C@@H](CN(C)S(=O)(=O)c2ccc(Cl)cc2)[C@H](C)CN([C@@H](C)CO)C(=O)c2cc(NS(C)(=O)=O)ccc2O1 | inactive: -0.084%
C[C@H](CO)N1C[C@H](C)[C@@H](CN(C)S(=O)(=O)c2ccc(F)cc2)Oc2ccc(NC(=O)Cc3cn(C)c4ccccc34)cc2CC1=O | inactive: 3.11%
Cc1cccc(NCCNc2cccc(C)c2)c1 | inactive: -5.24%
CCC(C)(CCNC(=O)Cc1ccccc1)c1ccccc1OC (configuration not stated) | inactive: 7.25%
Cc1ccc(C(=O)N(c2ccccn2)C(C)c2ccco2)cc1C (configuration not stated) | inactive: 9.09%
CC(C(=O)N1CCCc2ccccc21)N1C(=O)c2ccccc2C1=O (configuration not stated) | inactive: -3.35%

10 of the compounds above, in markdown:

| Compound | rescue activity (ATP increase) |
| --- | --- |
| O=C(NCc1ccc(Cl)c(Cl)c1)c1cccnc1 | inactive: 20.5% |
| COc1cccc(CC(NC(C)=O)C(=O)NC2CCN(c3nc(C)cc(C)c3C#N)CC2)c1 (configuration not stated) | inactive: -23.4% |
| C[C@@H]1CN([C@H](C)CO)C(=O)c2cccc(NS(=O)(=O)c3cccs3)c2O[C@@H]1CN(C)S(=O)(=O)c1cccs1 | inactive: 16.3% |
| Cc1noc(C)c1S(=O)(=O)Nc1ccc2c(c1)CC(=O)N([C@H](C)CO)C[C@@H](C)[C@@H](CN(C)Cc1ccc(Cl)c(Cl)c1)O2 | inactive: 25.4% [at 21 µM] |
| CCOC(=O)c1c(NC(=O)CSc2nnc(C)c(=O)[nH]2)sc2c1CCC2 | inactive: -9.67% |
| CC(C)CNC(=O)CN(C1CCCCC1)S(=O)(=O)c1ccccc1 | inactive: -0.134% |
| C[C@@H]1CN([C@H](C)CO)C(=O)c2cc(NS(=O)(=O)c3ccc(Cl)cc3)ccc2O[C@@H]1CN(C)C(=O)Nc1ccccc1 | inactive: 1.03% |
| CC(=O)N1c2ccc(S(=O)(=O)NCCC(=O)NCCc3ccc(C)cc3)cc2CC1C (configuration not stated) | inactive: -9.48% |
| C[C@@H]1CCCCO[C@@H](CN(C)S(=O)(=O)c2ccc(Cl)cc2)[C@H](C)CN([C@@H](C)CO)C(=O)c2cc(NS(C)(=O)=O)ccc2O1 | inactive: -0.084% |
| C[C@H](CO)N1C[C@H](C)[C@@H](CN(C)S(=O)(=O)c2ccc(F)cc2)Oc2ccc(NC(=O)Cc3cn(C)c4ccccc34)cc2CC1=O | inactive: 3.11% |

The results go on.

Compound | rescue activity (ATP increase)
CC(C)NC(=O)NC(=O)COC(=O)c1ccc(NC(=O)CC#N)cc1 | inactive: 0.166%
COc1ccc(NC(=O)Cn2ccc(C(F)(F)F)n2)cc1S(=O)(=O)N1CCOCC1 | inactive: 16.8%
CCCNC(=O)c1ccc(CNc2c(N3CCC(C(=O)OCC)CC3)c(=O)c2=O)cc1 | inactive: -4.49%
COc1ccc(S(=O)(=O)Nc2ccc3c(c2)C(=O)N([C@@H](C)CO)C[C@@H](C)[C@@H](CN(C)C(=O)Nc2cccc4ccccc24)OCCCC[C@H](C)O3)cc1 | inactive: 10.9%
C[C@@H]1CCCCO[C@@H](CN(C)Cc2ccc(C(F)(F)F)cc2)[C@H](C)CN([C@@H](C)CO)C(=O)c2cc(NC(=O)CCC(F)(F)F)ccc2O1 | inactive: 27.3%
CN1C(=O)CC(N2CCN(c3ccccc3)CC2)C1=O (configuration not stated) | inactive: 8.75%
CCOc1ccc(S(=O)(=O)NCC(=O)N(C)Cc2cccnc2)cc1 | inactive: 15.8%
O=C(c1ccc2c(c1)C(=O)N(c1ccc(Cl)cc1)C2=O)N1CCN(c2ccccn2)CC1 | inactive: -6.89%
COC(=O)c1ccccc1COn1c(=O)c(C)[n+]([O-])c2ccccc21 | inactive: -9.34%
O=c1c2cnn(-c3ccc(F)cc3)c2ncn1Cc1ccccc1 | inactive: 15%
Cc1cc(Cl)c(S(=O)(=O)NCc2ccncc2)cc1OCC(N)=O | inactive: -0.604%
COc1ccc(C(=O)c2cn[nH]c2-c2cc(Cl)ccc2O)cc1 | inactive: 16.4%
O=C(NCCCCNC(=O)c1ccc(Cl)s1)c1ccc(Cl)s1 | inactive: 8.39%
CN1CCC(=NNC(=O)CN(c2ccc(Oc3ccccc3)cc2)S(C)(=O)=O)CC1 | inactive: 23.3%
C[C@H](CO)N1C[C@H](C)[C@H](CN(C)C(=O)Nc2ccc(C(F)(F)F)cc2)OCCCC[C@H](C)Oc2ccc(NC(=O)c3ccccc3)cc2C1=O | inactive: -9.02%
COCC(=O)Nc1nc(-c2ccc(C)cc2)c(C)s1 | inactive: 5.75%
COc1cccc(C#Cc2cnc3c(c2)C(=O)N([C@@H](C)CO)C[C@H](C)[C@H](CN(C)C(=O)C2CCC2)O3)c1 | inactive: 10.4%
C[C@@H]1CN([C@@H](C)CO)C(=O)Cc2cc(NS(=O)(=O)c3cn(C)cn3)ccc2O[C@H]1CN(C)Cc1ccc(-c2ccccc2)cc1 | inactive: 26.3%
O=C1c2ccccc2C(=O)N1CN(C(=O)COc1ccccc1)c1ccc(F)cc1 | inactive: 14.1%
COc1ccc(N=Cc2sc(O)c3ccccc23)cc1 | inactive: 19.5%
C[C@@H]1CN([C@H](C)CO)C(=O)c2cc(NC(=O)Cn3cnnn3)ccc2O[C@@H]1CN(C)Cc1ccc(C(=O)Nc2ccccc2N)cc1 | inactive: 30%
C[C@@H]1CN([C@@H](C)CO)C(=O)c2cc(NC(=O)Cc3cn(C)c4ccccc34)ccc2O[C@@H]1CN(C)S(=O)(=O)c1cccs1 | inactive: 21.2%
CCOc1cc2[nH]c(=S)n(CCOC)c(=O)c2cc1OCC | inactive: -1.84%

— PubChem BioAssay AID624405 (Broad Institute, 2012)
